These are yes or no findings as the source states them, for the method shown. Binding seen in cells or lysates may run through a third protein. Some entries that bind do so weakly or less than the wild type. For part of these data: Where a sequence is shown, tags or fusion partners need not be part of it. Blank lines part the entries; values can stand above or below the binder they belong to.
How the values were obtained:
FLAG-Pemt = target: T1, FLAG-Pemt (UniProt Q61907); test: co-IP; FLAG-Pemt and myc-CHC segments co-expressed in NIH3T3 cells; immunoprecipitated by anti-FLAG antibody, blotted with anti-myc antibody
T1 sequence: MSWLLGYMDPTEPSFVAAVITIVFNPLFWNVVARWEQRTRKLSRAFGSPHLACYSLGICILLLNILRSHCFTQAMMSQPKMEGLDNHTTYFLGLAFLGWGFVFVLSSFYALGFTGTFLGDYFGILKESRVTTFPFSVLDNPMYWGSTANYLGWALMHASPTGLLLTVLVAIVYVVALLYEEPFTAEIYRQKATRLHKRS

[1] = target: Clathrin heavy chain (CHC), endogenous in mouse liver nuclei (mouse (endogenous in liver)) (UniProt Q68FD5); test: co-IP; nuclear protein of liver samples (STD and HFHS diets) immunoprecipitated with anti-CHC antibodies, blotted with anti-Pemt antibodies

binding (FLAG-Pemt): binds
B1: myc-CHC (1074–1406) (domain or fragment, UniProt Q68FD5 1074-1406)
chain: KFDVNTSAVQVLIEHIGNLDRAYEFAERCNEPAVWSQLAKAQLQKGMVKEAIDSYIKADDPSSYMEVVQAANASGNWEELVKYLQMARKKARESYVETELIFALAKTNRLAELEEFINGPNNAHIQQVGDRCYDEKMYDAAKLLYNNVSNFGRLASTLVHLGEYQAAVDGARKANSTRTWKEVCFACVDGKEFRLAQMCGLHIVVHADELEELINYYQDRGYFEELITMLEAALGLERAHMGMFTELAILYSKFKPQKMREHLELFWSRVNIPKVLRAAEQAHLWAELVFLYDKYEEYDNAIITMMNHPTDAWKEGQFKDIITKVANVELYYK

binding (FLAG-Pemt): binds
B2: myc-CHC (1267–1513) (domain or fragment, UniProt Q68FD5 1267-1513)
chain: RLAQMCGLHIVVHADELEELINYYQDRGYFEELITMLEAALGLERAHMGMFTELAILYSKFKPQKMREHLELFWSRVNIPKVLRAAEQAHLWAELVFLYDKYEEYDNAIITMMNHPTDAWKEGQFKDIITKVANVELYYKAIQFYLEFKPLLLNDLLMVLSPRLDHTRAVNYFSKVKQLPLVKPYLRSVQNHNNKSVNESLNNLFITEEDYQALRTSIDAYDNFDNISLAQRLEKHELIEFRRIAAY

binding [1]: binds
B3: Phosphatidylethanolamine N-methyltransferase (Pemt), endogenous in mouse liver nuclei (protein, UniProt Q61907-1 1-199)
chain: T1 sequence
